Taken from: PubChem BioAssay AID1224829 (NIAID, 2016)
Screen: 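Secondary check of hits that alter LPS-induced p65 translocation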 (follow-up of hits). Cell system: mouse RAW264.7 G9 macrophage reporter cells. Knock-down reagent: single siRNA against mouse genes, 100 nM. Duration: 2 days of siRNA knock-down, then 40 min of LPS before fixing. Conditions: LPS (Salmonella minnesota R595) at 10 ng/ml. Detection: 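Imaging of GFP-p65 after 40 min of LPS; nuclear over perinuclear ring intensity ratio, scaled to plate median and non-targeting control wells, given as z-score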. Scale: p65 translocation z-score and gene median z-score, per vendor: higher = more nuclear NF-kappaB p65 after LPS. Call rule: 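Active means the replicate-mean z-score lies beyond plus or minus 2, in either direction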. Meaning of the calls: active = changed p65 translocation (either direction); inactive = no clear change.
In all, the deposit lists about 3,800 reagents; below is a part drawn at random. 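Calls cover raised and lowered translocation; gene median uses one vendor's three siRNAs; qiagen siRNAs acted more weakly than ambion siRNAs.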 Entries without a mark were called inactive. The numbers tell different reagents against one gene apart. Reagent sequences are not shown.

no.	gene symbol	reagent	siRNA vendor or control pool	p65 translocation z-score, replicate mean	p65 translocation z-score, replicate 1	p65 translocation z-score, replicate 2	gene median z-score, per vendor
1	Mrtfb	1	ambion single siRNA	-1.23	-0.988	-1.48	-1.17
2	Mrtfb	2	ambion single siRNA	-4.94 (active)	-4.94		-1.17
3	Mrtfb	3	ambion single siRNA	-0.693	-0.211	-1.17	-1.17
4	Mrtfb	4	qiagen single siRNA	0.62	0.665	0.575	0.62
5	Mrtfb	5	qiagen single siRNA	0.369	1.23	-0.496	0.62
6	Mrtfb	6	qiagen single siRNA	-0.11	-1.56	1.34	0.62
7	Tjp3	1	ambion single siRNA	-0.211	0.52	-0.942	-0.786
8	Tjp3	2	ambion single siRNA	-0.398	-1.07	0.273	-0.786
9	Tjp3	3	ambion single siRNA	-1.52	-2.41	-0.629	-0.786
10	Tjp3	4	qiagen single siRNA	1.41	0.486	2.34	-0.503
11	Tjp3	5	qiagen single siRNA	-2.02 (active)	-2.69	-1.34	-0.503
12	Tjp3	6	qiagen single siRNA	-1.14	0.337	-2.62	-0.503
13	Large2	1	ambion single siRNA	-0.978	-1.2	-0.753	-1.2
14	Large2	2	ambion single siRNA	-1.07	1.33	-3.47	-1.2
15	Large2	3	ambion single siRNA	-3.28 (active)	-3.28		-1.2
16	Large2	4	qiagen single siRNA	-0.882	-1.49	-0.277	-0.153
17	Large2	5	qiagen single siRNA	-0.865	-1.7	-0.0286	-0.153
18	Large2	6	qiagen single siRNA	1.83	0.733	2.92	-0.153
19	Bpifb9a	1	qiagen single siRNA	3.05 (active)	2.84	3.25	-1.89
20	Bpifb9a	2	qiagen single siRNA	-3.38 (active)	-4.04	-2.71	-1.89
21	Bpifb9a	3	qiagen single siRNA	-2.64 (active)	-1.08	-4.2	-1.89
22	Slc25a14	1	ambion single siRNA	-1.05	-0.75	-1.36	-1.63
23	Slc25a14	2	ambion single siRNA	-1.89	-2.05	-1.73	-1.63
24	Slc25a14	3	ambion single siRNA	-3.87 (active)	-1.52	-6.22	-1.63
25	Slc25a14	4	qiagen single siRNA	1.16	1.71	0.613	0.649
26	Slc25a14	5	qiagen single siRNA	0.473	0.649	0.296	0.649
27	Slc25a14	6	qiagen single siRNA	2.43 (active)	2.43		0.649
28	Or2t46	1	ambion single siRNA	-1.95	-1.92	-1.98	1.75
29	Or2t46	2	ambion single siRNA	2.8 (active)	4.16	1.44	1.75
30	Or2t46	3	ambion single siRNA	2.54 (active)	3.03	2.06	1.75
31	Or2t46	4	qiagen single siRNA	-0.857	-1.36	-0.355	-1.32
32	Or2t46	5	qiagen single siRNA	-2.43 (active)	-1.28	-3.58	-1.32
33	Or2t46	6	qiagen single siRNA	-1.13	-1.67	-0.604	-1.32
34	Med25	1	ambion single siRNA	-1.78	-2.36	-1.2	-1.42
35	Med25	2	ambion single siRNA	-1.18	-1.11	-1.25	-1.42
36	Med25	3	ambion single siRNA	-1.9	-2.21	-1.59	-1.42
37	Med25	4	qiagen single siRNA	-0.942	-1.25	-0.638	0.84
38	Med25	5	qiagen single siRNA	2.15 (active)	0.84	3.46	0.84
39	Med25	6	qiagen single siRNA	1.5	1.5		0.84

Quoted from above (4 entries):
no.	gene symbol	reagent	siRNA vendor or control pool	p65 translocation z-score, replicate mean	p65 translocation z-score, replicate 1	p65 translocation z-score, replicate 2	gene median z-score, per vendor
29	Or2t46	2	ambion single siRNA	2.8 (active)	4.16	1.44	1.75
30	Or2t46	3	ambion single siRNA	2.54 (active)	3.03	2.06	1.75
31	Or2t46	4	qiagen single siRNA	-0.857	-1.36	-0.355	-1.32
32	Or2t46	5	qiagen single siRNA	-2.43 (active)	-1.28	-3.58	-1.32
